Among the data in doi:10.1101/2021.07.28.454117 are binding values, retold here.

The target in assay [1] is T1, ANXA1-mCherry (UniProt P04083).
T1 sequence: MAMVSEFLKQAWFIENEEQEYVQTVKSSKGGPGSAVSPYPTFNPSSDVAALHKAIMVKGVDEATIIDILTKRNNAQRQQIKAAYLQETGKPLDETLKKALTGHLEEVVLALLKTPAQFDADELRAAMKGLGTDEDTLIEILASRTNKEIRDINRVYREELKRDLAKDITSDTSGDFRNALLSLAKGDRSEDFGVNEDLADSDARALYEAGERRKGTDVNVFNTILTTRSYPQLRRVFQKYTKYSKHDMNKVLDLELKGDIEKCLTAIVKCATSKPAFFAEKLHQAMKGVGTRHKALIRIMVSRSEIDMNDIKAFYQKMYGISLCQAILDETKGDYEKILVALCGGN
Briefly: co-IP.

The target in assay [2] is T2, GFP-LGN (UniProt P81274).
T2 sequence: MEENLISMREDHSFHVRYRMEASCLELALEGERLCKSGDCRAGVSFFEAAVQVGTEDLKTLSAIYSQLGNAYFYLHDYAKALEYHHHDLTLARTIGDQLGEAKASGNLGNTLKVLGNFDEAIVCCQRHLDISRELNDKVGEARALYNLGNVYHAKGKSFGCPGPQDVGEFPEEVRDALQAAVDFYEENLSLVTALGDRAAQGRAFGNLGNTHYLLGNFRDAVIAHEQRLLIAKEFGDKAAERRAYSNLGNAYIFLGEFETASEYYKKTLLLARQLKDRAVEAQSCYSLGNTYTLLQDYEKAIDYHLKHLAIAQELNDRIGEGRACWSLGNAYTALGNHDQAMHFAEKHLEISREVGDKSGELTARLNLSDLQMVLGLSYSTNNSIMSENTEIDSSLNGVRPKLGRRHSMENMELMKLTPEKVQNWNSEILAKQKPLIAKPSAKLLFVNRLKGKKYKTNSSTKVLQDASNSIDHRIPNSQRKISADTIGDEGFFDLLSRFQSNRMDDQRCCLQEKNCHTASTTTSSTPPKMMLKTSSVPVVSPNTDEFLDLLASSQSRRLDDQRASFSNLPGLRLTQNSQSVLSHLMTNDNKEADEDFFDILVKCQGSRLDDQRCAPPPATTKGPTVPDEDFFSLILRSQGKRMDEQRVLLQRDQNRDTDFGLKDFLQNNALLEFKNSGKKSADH
Put plainly: proximity ligation.

The target of assay [3] is T2, GFP-LGN. Put plainly: co-IP.

These are yes or no findings as the source states them, for the method shown. Binding seen in cells or lysates may run through a third protein. Some entries that bind do so weakly or less than the wild type. For part of these data: Tags and fused reporters may be left off the sequences shown.

B1: LGN (endogenous) (protein, UniProt P81274 1-684)
chain: T2 sequence
As for B1, in assay [1], the binding entry was “binds”.

B2: Annexin A1 (ANXA1) (protein, UniProt P04083 1-346)
chain: T1 sequence
In the case of B2, the binding result in assay [2] and in assay [3] was “binds” in each case.
